# Results from the supplement of paper PMC12823440, “Inhibitors supercharge kinase turnover through native proteolytic circuits” (Nature, 2025).
# Amino acid sequences for entries named in this document (tags omitted). A change or cut given only in a name is not applied to a line headed by its entry.
# UniProt P00519, whole entry: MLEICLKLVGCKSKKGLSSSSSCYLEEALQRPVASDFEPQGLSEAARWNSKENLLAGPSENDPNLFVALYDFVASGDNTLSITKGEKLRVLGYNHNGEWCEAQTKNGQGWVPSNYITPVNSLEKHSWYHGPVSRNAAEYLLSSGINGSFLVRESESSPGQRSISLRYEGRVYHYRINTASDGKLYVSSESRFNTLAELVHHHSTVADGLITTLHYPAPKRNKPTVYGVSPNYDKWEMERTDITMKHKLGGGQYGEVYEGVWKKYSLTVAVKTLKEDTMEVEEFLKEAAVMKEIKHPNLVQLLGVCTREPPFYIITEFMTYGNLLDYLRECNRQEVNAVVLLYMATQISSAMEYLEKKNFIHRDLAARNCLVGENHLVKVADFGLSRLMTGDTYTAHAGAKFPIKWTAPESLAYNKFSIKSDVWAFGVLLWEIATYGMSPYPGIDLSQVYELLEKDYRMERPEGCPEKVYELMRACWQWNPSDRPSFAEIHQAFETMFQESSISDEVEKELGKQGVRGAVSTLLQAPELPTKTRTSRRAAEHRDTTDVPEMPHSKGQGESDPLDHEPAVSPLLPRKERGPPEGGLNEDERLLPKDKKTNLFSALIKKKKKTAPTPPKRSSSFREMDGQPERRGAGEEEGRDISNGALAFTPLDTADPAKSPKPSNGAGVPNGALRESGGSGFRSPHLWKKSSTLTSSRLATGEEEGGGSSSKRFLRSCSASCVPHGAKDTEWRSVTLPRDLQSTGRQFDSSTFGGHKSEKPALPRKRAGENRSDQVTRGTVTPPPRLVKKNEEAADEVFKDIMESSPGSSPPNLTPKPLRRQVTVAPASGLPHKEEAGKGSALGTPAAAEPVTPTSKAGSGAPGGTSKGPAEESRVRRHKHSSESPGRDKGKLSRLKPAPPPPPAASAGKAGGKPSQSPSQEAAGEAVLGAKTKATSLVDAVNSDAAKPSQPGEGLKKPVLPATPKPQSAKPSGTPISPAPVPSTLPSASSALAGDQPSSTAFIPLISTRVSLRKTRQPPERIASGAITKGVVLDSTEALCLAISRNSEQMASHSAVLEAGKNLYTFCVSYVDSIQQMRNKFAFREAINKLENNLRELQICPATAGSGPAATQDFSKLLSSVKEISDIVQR
# UniProt P31749: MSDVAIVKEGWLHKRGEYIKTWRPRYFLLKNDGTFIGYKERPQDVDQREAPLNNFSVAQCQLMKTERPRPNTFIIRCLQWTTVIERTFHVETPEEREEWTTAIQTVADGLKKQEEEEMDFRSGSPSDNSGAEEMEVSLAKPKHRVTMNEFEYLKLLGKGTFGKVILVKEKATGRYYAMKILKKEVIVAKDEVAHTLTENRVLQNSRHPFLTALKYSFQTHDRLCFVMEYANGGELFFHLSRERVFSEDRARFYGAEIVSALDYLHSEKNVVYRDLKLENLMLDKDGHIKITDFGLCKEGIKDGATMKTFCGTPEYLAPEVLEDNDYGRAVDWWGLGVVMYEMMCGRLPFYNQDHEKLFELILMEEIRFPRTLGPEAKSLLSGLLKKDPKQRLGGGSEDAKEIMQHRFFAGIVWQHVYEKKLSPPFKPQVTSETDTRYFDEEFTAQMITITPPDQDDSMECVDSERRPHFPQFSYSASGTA
# UniProt Q9UM73: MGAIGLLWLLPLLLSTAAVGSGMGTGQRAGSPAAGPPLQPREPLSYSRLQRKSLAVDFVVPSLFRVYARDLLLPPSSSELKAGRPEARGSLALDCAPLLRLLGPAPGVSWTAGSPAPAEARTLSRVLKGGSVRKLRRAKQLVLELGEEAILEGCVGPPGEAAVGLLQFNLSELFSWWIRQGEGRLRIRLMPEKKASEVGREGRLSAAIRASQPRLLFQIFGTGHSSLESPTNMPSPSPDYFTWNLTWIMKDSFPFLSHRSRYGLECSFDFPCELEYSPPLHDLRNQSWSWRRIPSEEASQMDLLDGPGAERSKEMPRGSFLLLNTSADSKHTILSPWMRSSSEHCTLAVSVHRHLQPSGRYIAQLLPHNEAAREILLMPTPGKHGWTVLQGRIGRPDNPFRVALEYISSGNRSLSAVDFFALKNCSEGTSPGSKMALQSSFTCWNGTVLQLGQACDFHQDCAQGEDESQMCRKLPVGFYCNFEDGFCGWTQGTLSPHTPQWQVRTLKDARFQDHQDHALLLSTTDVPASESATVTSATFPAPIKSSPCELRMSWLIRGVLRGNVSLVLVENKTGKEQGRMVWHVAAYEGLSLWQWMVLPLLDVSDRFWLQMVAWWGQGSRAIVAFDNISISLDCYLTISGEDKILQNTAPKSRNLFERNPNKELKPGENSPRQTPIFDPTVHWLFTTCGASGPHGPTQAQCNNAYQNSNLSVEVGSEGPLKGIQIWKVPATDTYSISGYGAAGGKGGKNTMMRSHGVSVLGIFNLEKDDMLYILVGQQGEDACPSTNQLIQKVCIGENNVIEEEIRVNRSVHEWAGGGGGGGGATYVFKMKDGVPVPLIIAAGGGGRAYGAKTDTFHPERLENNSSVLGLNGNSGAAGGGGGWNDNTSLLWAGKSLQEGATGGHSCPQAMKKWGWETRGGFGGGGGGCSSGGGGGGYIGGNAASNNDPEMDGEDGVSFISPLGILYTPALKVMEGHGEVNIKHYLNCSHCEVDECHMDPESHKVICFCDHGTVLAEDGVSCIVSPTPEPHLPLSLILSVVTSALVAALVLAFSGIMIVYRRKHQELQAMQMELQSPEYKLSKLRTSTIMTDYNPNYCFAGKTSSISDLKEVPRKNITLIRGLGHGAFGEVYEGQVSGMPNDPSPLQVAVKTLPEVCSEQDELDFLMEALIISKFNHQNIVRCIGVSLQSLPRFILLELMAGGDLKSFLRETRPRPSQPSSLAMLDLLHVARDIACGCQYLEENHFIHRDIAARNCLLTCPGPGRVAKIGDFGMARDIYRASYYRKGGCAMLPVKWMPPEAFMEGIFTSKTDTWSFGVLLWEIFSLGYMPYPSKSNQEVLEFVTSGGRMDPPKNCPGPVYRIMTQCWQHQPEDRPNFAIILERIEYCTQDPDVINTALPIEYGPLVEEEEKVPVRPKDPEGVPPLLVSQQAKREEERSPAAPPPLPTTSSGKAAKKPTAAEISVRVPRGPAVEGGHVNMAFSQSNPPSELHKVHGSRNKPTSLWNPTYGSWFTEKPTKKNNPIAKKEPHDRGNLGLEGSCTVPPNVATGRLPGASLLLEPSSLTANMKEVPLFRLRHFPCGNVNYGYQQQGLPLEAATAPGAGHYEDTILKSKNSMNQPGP
# UniProt P10398: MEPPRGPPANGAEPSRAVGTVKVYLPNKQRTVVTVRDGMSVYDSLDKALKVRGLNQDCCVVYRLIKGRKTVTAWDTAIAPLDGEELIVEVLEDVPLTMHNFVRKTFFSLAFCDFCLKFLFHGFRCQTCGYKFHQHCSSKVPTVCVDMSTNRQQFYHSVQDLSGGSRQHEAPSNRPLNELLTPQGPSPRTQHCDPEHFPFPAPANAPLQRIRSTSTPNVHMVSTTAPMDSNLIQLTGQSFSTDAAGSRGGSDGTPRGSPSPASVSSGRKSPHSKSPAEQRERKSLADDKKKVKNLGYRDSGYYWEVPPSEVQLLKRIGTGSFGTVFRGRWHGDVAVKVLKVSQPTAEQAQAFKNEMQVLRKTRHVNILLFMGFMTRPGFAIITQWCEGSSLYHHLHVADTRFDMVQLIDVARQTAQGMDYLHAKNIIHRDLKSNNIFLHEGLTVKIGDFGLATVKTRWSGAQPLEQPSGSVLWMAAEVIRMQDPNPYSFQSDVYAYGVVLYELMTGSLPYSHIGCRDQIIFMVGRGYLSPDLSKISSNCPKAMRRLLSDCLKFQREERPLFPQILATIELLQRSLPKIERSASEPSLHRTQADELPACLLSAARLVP
# UniProt Q96GD4, whole entry: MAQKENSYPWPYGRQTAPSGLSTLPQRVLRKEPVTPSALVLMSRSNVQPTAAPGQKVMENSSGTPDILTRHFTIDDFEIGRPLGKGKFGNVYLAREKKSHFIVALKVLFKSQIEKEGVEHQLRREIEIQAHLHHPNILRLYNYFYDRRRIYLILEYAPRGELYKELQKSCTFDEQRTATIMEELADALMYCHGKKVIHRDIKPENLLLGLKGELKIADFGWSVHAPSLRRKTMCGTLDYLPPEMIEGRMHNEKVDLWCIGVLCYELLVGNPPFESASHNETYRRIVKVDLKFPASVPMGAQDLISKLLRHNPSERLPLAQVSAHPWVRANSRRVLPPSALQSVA
# UniProt Q06187: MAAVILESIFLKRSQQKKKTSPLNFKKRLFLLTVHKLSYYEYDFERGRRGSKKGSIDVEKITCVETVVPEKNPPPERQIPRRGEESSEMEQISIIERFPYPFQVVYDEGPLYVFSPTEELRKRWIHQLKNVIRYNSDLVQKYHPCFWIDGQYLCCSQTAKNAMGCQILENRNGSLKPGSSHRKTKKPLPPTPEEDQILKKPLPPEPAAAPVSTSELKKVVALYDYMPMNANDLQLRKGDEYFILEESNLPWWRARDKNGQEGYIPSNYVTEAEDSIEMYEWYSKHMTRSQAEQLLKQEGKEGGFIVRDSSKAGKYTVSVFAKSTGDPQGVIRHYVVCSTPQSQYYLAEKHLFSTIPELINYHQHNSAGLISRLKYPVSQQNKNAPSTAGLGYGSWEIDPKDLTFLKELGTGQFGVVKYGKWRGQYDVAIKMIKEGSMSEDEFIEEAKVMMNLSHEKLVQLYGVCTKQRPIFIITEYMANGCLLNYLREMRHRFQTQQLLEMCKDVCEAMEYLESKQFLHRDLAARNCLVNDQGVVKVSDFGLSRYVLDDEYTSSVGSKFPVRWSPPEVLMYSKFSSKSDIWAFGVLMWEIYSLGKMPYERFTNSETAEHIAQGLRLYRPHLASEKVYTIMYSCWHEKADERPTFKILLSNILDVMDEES
# UniProt Q9UQM7, whole entry: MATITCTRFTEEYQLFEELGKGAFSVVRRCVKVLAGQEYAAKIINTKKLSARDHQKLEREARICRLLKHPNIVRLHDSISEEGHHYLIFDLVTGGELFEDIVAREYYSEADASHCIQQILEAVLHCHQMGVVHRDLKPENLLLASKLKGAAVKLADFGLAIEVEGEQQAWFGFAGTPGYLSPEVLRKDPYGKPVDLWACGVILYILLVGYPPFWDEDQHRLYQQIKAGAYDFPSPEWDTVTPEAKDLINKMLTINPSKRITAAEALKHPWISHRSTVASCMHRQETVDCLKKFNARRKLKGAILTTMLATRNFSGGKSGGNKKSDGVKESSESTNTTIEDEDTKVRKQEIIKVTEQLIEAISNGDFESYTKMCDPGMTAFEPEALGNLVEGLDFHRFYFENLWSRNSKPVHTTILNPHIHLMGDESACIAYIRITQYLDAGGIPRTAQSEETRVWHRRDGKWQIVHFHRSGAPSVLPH
# UniProt Q15131: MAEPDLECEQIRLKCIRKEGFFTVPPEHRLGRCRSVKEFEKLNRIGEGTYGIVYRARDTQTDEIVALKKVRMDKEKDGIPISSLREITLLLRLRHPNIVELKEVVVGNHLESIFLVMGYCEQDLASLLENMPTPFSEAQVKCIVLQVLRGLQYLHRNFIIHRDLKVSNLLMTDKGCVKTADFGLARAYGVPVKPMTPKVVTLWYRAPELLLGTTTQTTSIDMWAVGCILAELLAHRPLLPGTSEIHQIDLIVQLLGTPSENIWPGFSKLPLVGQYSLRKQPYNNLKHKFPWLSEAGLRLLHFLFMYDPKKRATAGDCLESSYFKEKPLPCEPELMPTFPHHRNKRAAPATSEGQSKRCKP
# UniProt P11802: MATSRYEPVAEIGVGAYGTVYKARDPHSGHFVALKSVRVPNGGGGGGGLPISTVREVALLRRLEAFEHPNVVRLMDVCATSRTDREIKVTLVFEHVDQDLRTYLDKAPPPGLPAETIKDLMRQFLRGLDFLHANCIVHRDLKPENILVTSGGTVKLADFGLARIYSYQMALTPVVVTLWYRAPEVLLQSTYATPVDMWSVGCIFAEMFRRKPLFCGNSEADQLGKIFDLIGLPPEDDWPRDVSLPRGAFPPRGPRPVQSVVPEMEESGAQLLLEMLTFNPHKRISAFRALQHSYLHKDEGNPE
# UniProt Q00535, whole entry, looked up: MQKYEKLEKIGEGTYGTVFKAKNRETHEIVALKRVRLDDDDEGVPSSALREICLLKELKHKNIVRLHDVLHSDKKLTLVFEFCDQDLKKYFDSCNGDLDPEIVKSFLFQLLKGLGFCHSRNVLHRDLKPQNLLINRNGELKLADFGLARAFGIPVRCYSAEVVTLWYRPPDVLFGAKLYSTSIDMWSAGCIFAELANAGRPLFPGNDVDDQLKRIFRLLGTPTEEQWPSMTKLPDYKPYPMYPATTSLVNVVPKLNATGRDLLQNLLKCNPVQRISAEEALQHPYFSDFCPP
# UniProt Q00534, whole entry: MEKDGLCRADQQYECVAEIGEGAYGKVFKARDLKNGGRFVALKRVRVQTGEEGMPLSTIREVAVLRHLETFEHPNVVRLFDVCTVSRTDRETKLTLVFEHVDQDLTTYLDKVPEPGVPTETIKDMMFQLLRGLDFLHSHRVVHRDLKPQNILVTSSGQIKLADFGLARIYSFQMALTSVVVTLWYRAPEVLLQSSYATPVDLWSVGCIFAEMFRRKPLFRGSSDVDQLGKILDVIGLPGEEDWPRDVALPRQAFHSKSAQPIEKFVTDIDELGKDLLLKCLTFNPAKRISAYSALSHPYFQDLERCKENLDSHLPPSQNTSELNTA
# This is one part of the list. The calls rarely recur for the same compound in another form.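 In K562 cells expressing nanoluciferase-fused kinases, luminescence was recorded at 4 h intervals between 2 and 18 h, normalized as percent of control with DMSO at 100% and a positive control at 0%. A significant (2 sigma) signal drop marks a time point as decreased. The authors' rule for a hit is not shown and takes in more than the number of time points.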
# Assays:
# Assay in all cases: kinase-Nluc reporter destabilization hit call (1 = scored as downregulated) (binary); higher = compound decreases kinase abundance
# Settings in all cases: K562; 2-18 h
# ABL1 = ABL1 (UniProt P00519)
# AKT1 = AKT1 (UniProt P31749)
# ALK = ALK (UniProt Q9UM73)
# ARAF = ARAF (UniProt P10398)
# AURKA = AURKA (UniProt O14965)
# AURKB = AURKB (UniProt Q96GD4)
# AURKC = AURKC (UniProt Q9UQB9)
# BLK = BLK (UniProt P51451)
# BMX = BMX (UniProt P51813)
# BRAF = BRAF (UniProt P15056)
# BRAF_V600E = tested on: BRAF_V600E
# BTK = BTK (UniProt Q06187)
# CAMK2A = CAMK2A (UniProt Q9UQM7)
# CAMK2G = CAMK2G (UniProt Q13555)
# CDK10 = CDK10 (UniProt Q15131)
# CDK2 = CDK2 (UniProt P24941)
# CDK3 = CDK3 (UniProt Q00526)
# CDK4 = CDK4 (UniProt P11802)
# CDK5 = CDK5 (UniProt Q00535)
# CDK6 = CDK6 (UniProt Q00534)
SMILES,kinase-Nluc reporter destabilization hit call (ABL1),kinase-Nluc reporter destabilization hit call (AKT1),kinase-Nluc reporter destabilization hit call (ALK),kinase-Nluc reporter destabilization hit call (ARAF),kinase-Nluc reporter destabilization hit call (AURKA),kinase-Nluc reporter destabilization hit call (AURKB),kinase-Nluc reporter destabilization hit call (AURKC),kinase-Nluc reporter destabilization hit call (BLK),kinase-Nluc reporter destabilization hit call (BMX),kinase-Nluc reporter destabilization hit call (BRAF),kinase-Nluc reporter destabilization hit call (BRAF_V600E),kinase-Nluc reporter destabilization hit call (BTK),kinase-Nluc reporter destabilization hit call (CAMK2A),kinase-Nluc reporter destabilization hit call (CAMK2G),kinase-Nluc reporter destabilization hit call (CDK10),kinase-Nluc reporter destabilization hit call (CDK2),kinase-Nluc reporter destabilization hit call (CDK3),kinase-Nluc reporter destabilization hit call (CDK4),kinase-Nluc reporter destabilization hit call (CDK5),kinase-Nluc reporter destabilization hit call (CDK6)
Nc1nccc(Oc2ccc3c(C(=O)Nc4cccc(C(F)(F)F)c4)cccc3c2)n1 (10 µM),inactive: 0,inactive: 0,inactive: 0,inactive: 0,inactive: 0,inactive: 0,inactive: 0,inactive: 0,inactive: 0,inactive: 0,inactive: 0,inactive: 0,inactive: 0,inactive: 0,inactive: 0,inactive: 0,inactive: 0,inactive: 0,inactive: 0,inactive: 0
CNCc1cc(Oc2ccc3c(ccn3C(=O)Nc3cc(C(F)(F)F)n(C)n3)c2)ncn1 [Acrizanib] (10 µM),inactive: 0,inactive: 0,inactive: 0,inactive: 0,inactive: 0,inactive: 0,inactive: 0,inactive: 0,inactive: 0,inactive: 0,inactive: 0,inactive: 0,inactive: 0,inactive: 0,inactive: 0,inactive: 0,inactive: 0,inactive: 0,inactive: 0,inactive: 0
Fc1ccc(Cl)cc1-c1nc(Nc2ccncc2)c2nccnc2n1 (10 µM),inactive: 0,inactive: 0,inactive: 0,inactive: 0,inactive: 0,inactive: 0,inactive: 0,inactive: 0,inactive: 0,inactive: 0,inactive: 0,inactive: 0,inactive: 0,inactive: 0,inactive: 0,inactive: 0,inactive: 0,inactive: 0,inactive: 0,inactive: 0
CCn1c(N)c(C(=O)NC)c(=O)c2ccc(C#CC(C)(O)COC)nc21 (stereo not given) (10 µM),inactive: 0,inactive: 0,inactive: 0,inactive: 0,inactive: 0,inactive: 0,inactive: 0,inactive: 0,inactive: 0,inactive: 0,inactive: 0,inactive: 0,inactive: 0,inactive: 0,inactive: 0,inactive: 0,inactive: 0,inactive: 0,inactive: 0,inactive: 0
COc1cc2nnc(C(N)=O)c(Nc3ccc(C)cc3F)c2cc1N1CCN(CCO)CC1 (2.5 µM),inactive: 0,inactive: 0,inactive: 0,inactive: 0,inactive: 0,inactive: 0,inactive: 0,inactive: 0,inactive: 0,inactive: 0,inactive: 0,inactive: 0,inactive: 0,inactive: 0,inactive: 0,inactive: 0,inactive: 0,inactive: 0,inactive: 0,inactive: 0
CC1(C)CN(C(=O)c2ccc(-c3cccc4nc(NC(=O)C5CC5)nn34)cc2)C1 [Solcitinib] (10 µM),inactive: 0,inactive: 0,inactive: 0,inactive: 0,inactive: 0,inactive: 0,inactive: 0,inactive: 0,inactive: 0,inactive: 0,inactive: 0,inactive: 0,inactive: 0,inactive: 0,inactive: 0,inactive: 0,inactive: 0,inactive: 0,inactive: 0,inactive: 0
COc1ccc(Br)c(C=O)c1O [6-Bromo-2-hydroxy-3-methoxybenzaldehyde] (10 µM),inactive: 0,inactive: 0,inactive: 0,inactive: 0,inactive: 0,inactive: 0,inactive: 0,inactive: 0,inactive: 0,inactive: 0,inactive: 0,inactive: 0,inactive: 0,inactive: 0,inactive: 0,inactive: 0,inactive: 0,inactive: 0,inactive: 0,inactive: 0
CN1CCC(Nc2nc(Nc3ccc(Oc4ccccc4)cc3)c3c(=O)[nH]cc(Br)c3n2)CC1 (2.5 µM),inactive: 0,inactive: 0,inactive: 0,inactive: 0,inactive: 0,inactive: 0,inactive: 0,inactive: 0,active: 1,inactive: 0,inactive: 0,inactive: 0,inactive: 0,inactive: 0,inactive: 0,inactive: 0,inactive: 0,inactive: 0,inactive: 0,inactive: 0
COc1ccc(-c2cc(=O)c3c(O)cc(O)cc3o2)cc1-c1c(O)cc(O)c2c(=O)cc(-c3ccc(O)cc3)oc12 [Bilobetin] (2.5 µM),inactive: 0,inactive: 0,inactive: 0,inactive: 0,inactive: 0,inactive: 0,inactive: 0,inactive: 0,inactive: 0,inactive: 0,inactive: 0,inactive: 0,inactive: 0,inactive: 0,inactive: 0,inactive: 0,inactive: 0,inactive: 0,inactive: 0,inactive: 0
CS(=O)(=O)c1cccc(CNc2nc(Nc3ccc4c(c3)CCC(=O)N4)ncc2C(F)(F)F)c1 (10 µM),inactive: 0,inactive: 0,inactive: 0,inactive: 0,inactive: 0,inactive: 0,inactive: 0,inactive: 0,inactive: 0,inactive: 0,inactive: 0,inactive: 0,inactive: 0,inactive: 0,inactive: 0,inactive: 0,inactive: 0,inactive: 0,inactive: 0,inactive: 0
O=C(Nc1ccccc1C(=O)NC1CCCCNC1=O)c1cc2ccccc2s1 (stereo not given) (10 µM),inactive: 0,inactive: 0,inactive: 0,inactive: 0,inactive: 0,inactive: 0,inactive: 0,inactive: 0,inactive: 0,inactive: 0,inactive: 0,inactive: 0,inactive: 0,inactive: 0,inactive: 0,inactive: 0,inactive: 0,inactive: 0,inactive: 0,inactive: 0
COc1ccc2nc3ccc(OC)cc3c(SCCCN)c2c1 (10 µM),inactive: 0,inactive: 0,inactive: 0,inactive: 0,inactive: 0,inactive: 0,inactive: 0,inactive: 0,inactive: 0,inactive: 0,inactive: 0,inactive: 0,inactive: 0,inactive: 0,inactive: 0,inactive: 0,inactive: 0,inactive: 0,inactive: 0,inactive: 0
Cn1cc(C2=C(c3ccc(Cl)cc3Cl)C(=O)NC2=O)c2ccccc21 (10 µM),inactive: 0,inactive: 0,inactive: 0,inactive: 0,inactive: 0,inactive: 0,inactive: 0,inactive: 0,inactive: 0,inactive: 0,inactive: 0,inactive: 0,inactive: 0,inactive: 0,inactive: 0,inactive: 0,inactive: 0,inactive: 0,inactive: 0,inactive: 0
COCCNc1cc(NC(=O)N2CCCc3cc(CN4CCOCC4=O)c(C=O)nc32)ncc1C#N (10 µM),inactive: 0,inactive: 0,inactive: 0,inactive: 0,inactive: 0,inactive: 0,inactive: 0,inactive: 0,inactive: 0,inactive: 0,inactive: 0,inactive: 0,inactive: 0,inactive: 0,inactive: 0,inactive: 0,inactive: 0,inactive: 0,inactive: 0,inactive: 0
Cc1nn(CC(F)(F)F)cc1Nc1ncc(Br)c(NCc2ccc(S(N)(=O)=O)cc2)n1 (10 µM),inactive: 0,inactive: 0,inactive: 0,inactive: 0,inactive: 0,inactive: 0,inactive: 0,inactive: 0,inactive: 0,inactive: 0,inactive: 0,inactive: 0,inactive: 0,inactive: 0,inactive: 0,inactive: 0,inactive: 0,inactive: 0,inactive: 0,inactive: 0
O=c1c(O)c(-c2ccc(O)c(O)c2)oc2cc(O)c(O)c(O)c12 [Quercetagetin] (10 µM),inactive: 0,inactive: 0,inactive: 0,inactive: 0,inactive: 0,inactive: 0,inactive: 0,inactive: 0,inactive: 0,inactive: 0,inactive: 0,inactive: 0,inactive: 0,inactive: 0,inactive: 0,inactive: 0,inactive: 0,inactive: 0,inactive: 0,inactive: 0
O=C(O)c1c[nH]c2cc(Cl)c(-c3ccc(C4(O)CCC4)cc3)cc12 (10 µM),inactive: 0,inactive: 0,inactive: 0,inactive: 0,inactive: 0,inactive: 0,inactive: 0,inactive: 0,inactive: 0,inactive: 0,inactive: 0,inactive: 0,inactive: 0,inactive: 0,inactive: 0,inactive: 0,inactive: 0,inactive: 0,inactive: 0,inactive: 0
CCCCNc1ncc2c(-c3ccc(F)cc3)nn(CC3CCC(N)CC3)c2n1 (stereo not given) (2.5 µM),inactive: 0,inactive: 0,inactive: 0,inactive: 0,inactive: 0,inactive: 0,inactive: 0,inactive: 0,inactive: 0,inactive: 0,inactive: 0,inactive: 0,inactive: 0,inactive: 0,inactive: 0,inactive: 0,inactive: 0,inactive: 0,inactive: 0,inactive: 0

# Ordered by molecular weight (rising): some entries from above
SMILES,kinase-Nluc reporter destabilization hit call (ABL1),kinase-Nluc reporter destabilization hit call (AKT1),kinase-Nluc reporter destabilization hit call (ALK),kinase-Nluc reporter destabilization hit call (ARAF),kinase-Nluc reporter destabilization hit call (AURKA),kinase-Nluc reporter destabilization hit call (AURKB),kinase-Nluc reporter destabilization hit call (AURKC),kinase-Nluc reporter destabilization hit call (BLK),kinase-Nluc reporter destabilization hit call (BMX),kinase-Nluc reporter destabilization hit call (BRAF),kinase-Nluc reporter destabilization hit call (BRAF_V600E),kinase-Nluc reporter destabilization hit call (BTK),kinase-Nluc reporter destabilization hit call (CAMK2A),kinase-Nluc reporter destabilization hit call (CAMK2G),kinase-Nluc reporter destabilization hit call (CDK10),kinase-Nluc reporter destabilization hit call (CDK2),kinase-Nluc reporter destabilization hit call (CDK3),kinase-Nluc reporter destabilization hit call (CDK4),kinase-Nluc reporter destabilization hit call (CDK5),kinase-Nluc reporter destabilization hit call (CDK6)
COc1ccc(Br)c(C=O)c1O [6-Bromo-2-hydroxy-3-methoxybenzaldehyde] (10 µM),inactive: 0,inactive: 0,inactive: 0,inactive: 0,inactive: 0,inactive: 0,inactive: 0,inactive: 0,inactive: 0,inactive: 0,inactive: 0,inactive: 0,inactive: 0,inactive: 0,inactive: 0,inactive: 0,inactive: 0,inactive: 0,inactive: 0,inactive: 0
O=C(O)c1c[nH]c2cc(Cl)c(-c3ccc(C4(O)CCC4)cc3)cc12 (10 µM),inactive: 0,inactive: 0,inactive: 0,inactive: 0,inactive: 0,inactive: 0,inactive: 0,inactive: 0,inactive: 0,inactive: 0,inactive: 0,inactive: 0,inactive: 0,inactive: 0,inactive: 0,inactive: 0,inactive: 0,inactive: 0,inactive: 0,inactive: 0
Nc1nccc(Oc2ccc3c(C(=O)Nc4cccc(C(F)(F)F)c4)cccc3c2)n1 (10 µM),inactive: 0,inactive: 0,inactive: 0,inactive: 0,inactive: 0,inactive: 0,inactive: 0,inactive: 0,inactive: 0,inactive: 0,inactive: 0,inactive: 0,inactive: 0,inactive: 0,inactive: 0,inactive: 0,inactive: 0,inactive: 0,inactive: 0,inactive: 0
